Our source for the binding values is paper PMC11040358.

Sequences of proteins named here, by UniProt entry; tags and fusion partners are left off. A change or cut given only in a name is not applied to a line headed by its entry.
UniProt P63092: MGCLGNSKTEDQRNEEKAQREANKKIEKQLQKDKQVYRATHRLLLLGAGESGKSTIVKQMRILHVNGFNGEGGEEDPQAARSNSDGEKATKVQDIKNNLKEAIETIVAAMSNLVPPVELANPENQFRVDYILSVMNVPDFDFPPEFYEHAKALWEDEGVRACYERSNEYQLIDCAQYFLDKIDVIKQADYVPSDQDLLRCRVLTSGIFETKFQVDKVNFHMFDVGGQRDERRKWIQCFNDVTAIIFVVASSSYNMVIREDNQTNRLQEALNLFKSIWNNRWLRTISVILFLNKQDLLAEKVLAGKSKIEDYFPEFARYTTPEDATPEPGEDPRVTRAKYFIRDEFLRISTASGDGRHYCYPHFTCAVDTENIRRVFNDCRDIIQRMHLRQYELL
UniProt P63094: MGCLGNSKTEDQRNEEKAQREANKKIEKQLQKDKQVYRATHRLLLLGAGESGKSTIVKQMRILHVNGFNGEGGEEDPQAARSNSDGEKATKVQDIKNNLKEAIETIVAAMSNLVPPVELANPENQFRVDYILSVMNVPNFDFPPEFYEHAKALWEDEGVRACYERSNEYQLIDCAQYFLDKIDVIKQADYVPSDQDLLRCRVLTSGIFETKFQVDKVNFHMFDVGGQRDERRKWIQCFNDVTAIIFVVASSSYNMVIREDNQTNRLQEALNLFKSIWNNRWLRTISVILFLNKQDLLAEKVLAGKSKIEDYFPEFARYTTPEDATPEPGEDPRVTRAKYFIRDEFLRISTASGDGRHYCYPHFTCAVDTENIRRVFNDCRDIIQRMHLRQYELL
UniProt P45974: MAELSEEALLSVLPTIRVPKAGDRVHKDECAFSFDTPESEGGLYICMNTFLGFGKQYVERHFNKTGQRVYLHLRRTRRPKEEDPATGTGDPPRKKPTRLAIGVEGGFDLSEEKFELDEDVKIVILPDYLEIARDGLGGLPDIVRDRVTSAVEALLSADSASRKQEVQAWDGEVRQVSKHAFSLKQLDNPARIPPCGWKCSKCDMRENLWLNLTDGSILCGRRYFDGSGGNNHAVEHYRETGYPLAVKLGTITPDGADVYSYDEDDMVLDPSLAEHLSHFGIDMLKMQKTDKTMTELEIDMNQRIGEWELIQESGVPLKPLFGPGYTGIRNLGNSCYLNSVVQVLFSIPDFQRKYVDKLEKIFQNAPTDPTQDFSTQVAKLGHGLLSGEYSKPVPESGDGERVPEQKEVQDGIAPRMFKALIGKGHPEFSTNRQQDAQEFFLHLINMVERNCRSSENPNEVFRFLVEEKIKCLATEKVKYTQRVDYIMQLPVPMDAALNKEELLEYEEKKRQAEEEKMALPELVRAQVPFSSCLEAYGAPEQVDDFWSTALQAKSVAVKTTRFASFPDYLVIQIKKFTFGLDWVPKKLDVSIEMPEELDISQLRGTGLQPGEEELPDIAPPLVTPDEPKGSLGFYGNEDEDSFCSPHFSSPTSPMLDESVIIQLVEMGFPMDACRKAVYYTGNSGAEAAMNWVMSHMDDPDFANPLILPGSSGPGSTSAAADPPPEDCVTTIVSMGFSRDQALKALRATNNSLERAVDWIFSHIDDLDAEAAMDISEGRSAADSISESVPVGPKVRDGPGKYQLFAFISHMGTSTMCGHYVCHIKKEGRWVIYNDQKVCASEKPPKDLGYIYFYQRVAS
UniProt P56399: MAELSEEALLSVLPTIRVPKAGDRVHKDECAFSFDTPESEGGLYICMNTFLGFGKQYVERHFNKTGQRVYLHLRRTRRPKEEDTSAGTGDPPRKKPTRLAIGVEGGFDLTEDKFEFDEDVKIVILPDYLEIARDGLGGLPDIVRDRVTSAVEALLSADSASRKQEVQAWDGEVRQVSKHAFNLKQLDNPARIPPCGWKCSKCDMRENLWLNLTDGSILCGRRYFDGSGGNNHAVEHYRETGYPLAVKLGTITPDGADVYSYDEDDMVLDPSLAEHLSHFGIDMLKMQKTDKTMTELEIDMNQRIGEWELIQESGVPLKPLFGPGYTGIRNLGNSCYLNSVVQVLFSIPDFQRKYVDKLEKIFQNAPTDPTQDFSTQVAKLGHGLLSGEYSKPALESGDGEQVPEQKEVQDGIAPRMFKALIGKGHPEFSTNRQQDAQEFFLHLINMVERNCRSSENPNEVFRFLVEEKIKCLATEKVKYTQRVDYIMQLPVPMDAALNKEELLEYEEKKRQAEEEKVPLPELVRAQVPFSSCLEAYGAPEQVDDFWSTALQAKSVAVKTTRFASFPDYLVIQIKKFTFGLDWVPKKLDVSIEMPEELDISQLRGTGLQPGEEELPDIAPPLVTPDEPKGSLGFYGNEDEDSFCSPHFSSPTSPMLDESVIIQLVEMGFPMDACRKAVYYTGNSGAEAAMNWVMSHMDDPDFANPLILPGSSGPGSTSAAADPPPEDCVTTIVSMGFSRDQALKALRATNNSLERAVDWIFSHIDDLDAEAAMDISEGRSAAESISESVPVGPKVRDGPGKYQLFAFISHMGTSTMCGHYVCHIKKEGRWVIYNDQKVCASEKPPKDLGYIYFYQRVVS

Results are given in words; binding and its absence hold for the method and conditions named. In cells and extracts the contact can be indirect. Some binding calls cover weakened binding; strength is not graded here.

The target in assay [1] is T1, Tipe1 (co-IP of Figures S10A, S10E and S11I,J; construct not shown) (UniProt Q8WVP5).
T1 sequence: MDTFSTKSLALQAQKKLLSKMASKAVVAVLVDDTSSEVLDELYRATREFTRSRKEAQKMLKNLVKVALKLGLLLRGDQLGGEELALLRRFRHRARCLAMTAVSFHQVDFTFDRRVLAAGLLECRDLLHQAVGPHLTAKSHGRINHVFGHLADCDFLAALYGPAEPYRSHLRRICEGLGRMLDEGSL
In words: co-IP; in HEK293T cells (Figure S10A); tags and antibodies not shown.

The target of assay [2] is T2, TNF‐α‐induced protein 8‐like 1 (Tipe1), endogenous in MIN6 cells (mouse (endogenous in MIN6)) (UniProt Q8K288).
T2 sequence: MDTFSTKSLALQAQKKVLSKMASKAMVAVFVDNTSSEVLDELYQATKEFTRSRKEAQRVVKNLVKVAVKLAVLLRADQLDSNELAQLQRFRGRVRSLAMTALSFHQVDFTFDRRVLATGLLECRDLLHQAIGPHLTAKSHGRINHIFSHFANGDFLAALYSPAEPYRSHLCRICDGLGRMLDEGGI
In words: co-IP; endogenous proteins in MIN6 cell lysates; anti-Tipe1, anti-Gαs or anti-USP5 overnight at 4 °C, protein A/G magnetic beads 4 h, washed with PBST, Western blot; also after Tipe1 siRNA (Figure 5I).

For assay [3], the target named is Gnas‐Flag (Flag‐tagged Gαs) (human) (UniProt P63092). In words: co-IP; HEK293 cells overexpressing Tipe1-HA (rising doses), Gnas-Flag and USP5-Myc; IP with anti-Flag, probed with anti-Flag and anti-Myc.
In assay [4] the target is Gαs, the α subunit of the G‐stimulating protein, endogenous in MIN6 cells (mouse (endogenous in MIN6)) (UniProt P63094). In words: co-IP; endogenous proteins in MIN6 cell lysates; anti-Tipe1, anti-Gαs or anti-USP5 overnight at 4 °C, protein A/G magnetic beads 4 h, washed with PBST, Western blot; also after Tipe1 siRNA (Figure 5I).
The target of assay [5] is T2, TNF‐α‐induced protein 8‐like 1 (Tipe1), endogenous in MIN6 cells (mouse (endogenous in MIN6)). In words: co-IP; Figure S8A; cells and antibodies not shown.

For the molecule “Gαs (co-IP in HEK293T cells, Figure S10A; construct not shown) (from UniProt P63092 1-394)”, in assay [1], the binding result is on record as “binds”.

As to “Gαs, the α subunit of the G‐stimulating protein, endogenous in MIN6 cells (from UniProt P63094 1-394)”, the binding result in assay [2] is reported as “binds”.

“USP5‐Myc (from UniProt P45974 1-858) (enzyme)”: in assay [3], the binding entry is given as “binds”.

In the case of “deubiquitinase USP5, endogenous in MIN6 cells (from UniProt P56399 1-858) (enzyme)”, the binding entry in assay [2] and in assay [4] was “binds” in each case.

B1: GΑSP1 (encoded by Gprasp1) (protein, UniProt Q5U4C1 1-1347)
chain: MTRAEVEPGAQAKAENKPGDENANAAEVEPEAPLVVRPKVRTQIMTGARPKVKPKGTPGARPKGETSTPGGAYAKCKPKAIPIARSKHDAQVWAPNKFRGESMSKMGKQCQISAADPPLLSNDSGMVAQAKCLPVDRELANMDTESIPKKANSPAGFQPSYGSEEGTNMGSWYRARPVPKGEAYENSDFKWADKPSGSPSFWNRDEASTRFRPRKSMKANNRFRHMAKQEANTMPRHKNKQEFYNISSSDSEDESGKTPWFWPKDKTKVWSKPKEEPNSRSWFRSKKEVRVESTSGSECENPTKSLFWSGEEAKSRSKPRARKGVNMRARQQAKREACSDAMSGAIDTNKKESWFLPEEKANVFSKSKTKKEPRTRAVPKEEVKTKARASTKQEARPEEEVLVGAWFWDTQESTMADRISIKTTFVEEEPIVGDWFWSEEEASVDSETCHTSRPRAKEEQVSSFCLGSGKKSSMESGPKATSKSMPVAKEDEVVIGSWFWADDEEINLQADDESIFGSWFWGTGENSLRSVGVNCEKMPKAGEKEVTDSWFWAGDVNTEAEVEEQARSASTKATIFVPWFWSEKQPNMDLGSEPCSDIMAGAEEEPIIGPWFWAKVDNSVEAEVNSKSSLEDEEEPIRSPWFGAREQTDMKYAAGIRYKPMAEAEDANKKSCVWAKEPCLYPTNRECLKSTLGEKEDTVDPWLWSNNYPRTKTITGSWLWAAEEGNIDDETGEKIKLPTLEDNAFNSWFWKENEESIVEAPKREEFRPEAEEEDIIGSWFWAGDEDRFEPAAKINEENKIASEDEDTVGSWFWGNEEASLEAVRRGTFESAPGIKEEKVTGSWFWTDKAKVGAGSQTVETGSETEEEAIFESLIWAAKKDSIQAGVKRVSKPKDDGNIAVGSWLWSSDKATKEAKTLIVSEASPENGKESVVKFGSRAKDEVINKTGSGDNCKHSTEAETIVGAWFWEGDEASFESNPVPVCKAVCEPESSAEHEPDPSRRPQSWDEVTVQFKAGPWGKAGFPPMNPFRFPKEAASLFAEMFGGKPKLVEVGPEREPEPQFPFQYDPSYRSVREIREHLKARESAQPENWSCNCIQCELRIGSEEFEELLLLMDRNRDPFIHEISKIAMGMRGASQFTRDFIRNSGVVSLIEALLNYPSSRVRTRFLENMVRMAPPYPDLNMIETYVCQICEDTFDYDLDSPDQLSGLTMITHLTATSDYHKVVVNYLAGFFYLLNSGNTKTRFHVLKLLLNLSENLVMTKRLLVTDSVSEFMDLINREESDENIQIVLAIFETISKHIQKEALFSDDDDDDEEEDAVNLEPFISAFREAEKIAKELKRKPGNQKAP
For the molecule B1, in assay [5], the binding entry is “binds”.
